Test results published in PubChem BioAssay AID330 (DTP/NCI, 2004).
The list shows only some results of the screen, not a fair sample: it is rich in T/C values a quarter to a half above the control, in often repeated tests (any T/C) and in doses without a T/C. Further doses and runs are listed elsewhere. T/C gives the treated animals as a percentage of the vehicle group. Some doses have a count of surviving animals in place of a T/C: the source files T/C as zero there, which appears to mark a toxic dose or a test without result, not a measured value. Some doses without a T/C left all or most animals alive at the check, yet need not have been tolerated: survival well below the control is almost never listed, so the zero probably covers shortened survival too. Counts of survivors are from the toxicity check (mostly the fifth day) where no day follows; animals may have died later. Schedules are NCI's codes, read here as Q, the interval in days (D) or hours (H), X, the number of doses. Some entries were tested several times; the results are listed from low to high. Where survival is the endpoint, the PubChem record calls one and a half times the control and up active, and a quarter to a half above the control has no call in these data; cut-offs in other NCI protocols can differ. Additions like (4×) give the number of equal values in this list. Some T/C values carry the count of animals alive at the toxicity check (mostly the fifth day); without a count, all were alive then.

Tested on: P388 leukemia ip, CD2F1 mice, survival T/C
Assay: NCI In Vivo Anticancer Drug Screen. Data for tumor model P388 Leukemia (intraperitoneal) in CD2F1 (CDF1) mice
Settings: T/C endpoint: median survival time, higher T/C = longer survival
[1] = dose: 50.0 mg/kg/injection, schedule: Q01DX005 (ip), vehicle: Klucel (hydroxypropylcellulose) (HPC)
[2] = dose: 100.0 mg/kg/injection, schedule: Q01DX005 (ip), vehicle: Klucel (hydroxypropylcellulose) (HPC)
[3] = dose: 200.0 mg/kg/injection, schedule: Q01DX005 (ip), vehicle: Klucel (hydroxypropylcellulose) (HPC)
[4] = dose: 200.0 mg/kg/injection, schedule: Q04DX003 (ip), vehicle: saline with Tween-80
[5] = dose: 50.0 mg/kg/injection, schedule: Q04DX002 (ip), vehicle: saline with Tween-80
[6] = dose: 50.0 mg/kg/injection, schedule: Q04DX003 (ip), vehicle: saline with Tween-80
[7] = dose: 2.5 mg/kg/injection, schedule: Q01DX005 (ip), vehicle: Klucel (hydroxypropylcellulose) (HPC)

Q: Which results are given for `N=C(N)c1ccc(/C=C/c2cc3cc(C(=N)N)ccc3[nH]2)cc1`?
A: survivor count (dose: 100.0 mg/kg/injection, schedule: Q04DX003 (ip), vehicle: saline): 0 of 6; survivor count (dose: 200.0 mg/kg/injection, schedule: Q04DX003 (ip), vehicle: saline): 0 of 6; survivor count (dose: 400.0 mg/kg/injection, schedule: Q04DX003 (ip), vehicle: saline): 0 of 6

Q: Which survivor count (dose: 200.0 mg/kg/injection, schedule: Q01DX009 (ip), vehicle: other) does the source give for `O=CNCc1ccc(S(=O)(=O)F)cc1` here?
A: The survivor count was 2 of 6.

Q: Which results are given for `CSc1nc(Cl)cc(=O)n1C`?
A: survivor count [1]: 3 of 6; survivor count [2]: 2 of 6; survivor count [3]: 0 of 6

Q: With `COC(=O)C1C2CC3c4[nH]c5c([N+](=O)[O-])c(OC)ccc5c4CCN3CC2CC(OC(=O)c2cc(OC)c(OC)c(OC)c2)C1OC` (stereo not given) as the molecule, how does the survivor count (dose: 150.0 mg/kg/injection, schedule: Q01DX005 (ip), vehicle: Klucel (hydroxypropylcellulose) (HPC)) read?
A: The survivor count was 6 of 6.

Q: What does the source list for `CC1CCC(C)N1CCCCN1C(C)CCC1C` (stereo not given)?
A: survivor count (dose: 25.0 mg/kg/injection, schedule: Q01DX009 (ip), vehicle: saline): 1 of 6; survivor count (dose: 50.0 mg/kg/injection, schedule: Q01DX009 (ip), vehicle: saline): 1 of 6 and 3 of 6; survivor count (dose: 100.0 mg/kg/injection, schedule: Q01DX009 (ip), vehicle: saline): 5 of 6; survivor count (dose: 200.0 mg/kg/injection, schedule: Q01DX009 (ip), vehicle: saline): 0 of 6; survivor count (dose: 400.0 mg/kg/injection, schedule: Q01DX009 (ip), vehicle: saline): 0 of 6

Q: For `CC(C)(C)N(C(=O)OCC1c2ccccc2-c2ccccc21)C(CO)C(=O)O` (stereo not given), which survivor count [3] is on record?
A: The survivor count was 2 of 6.

Q: For `CCCC1CCCC[N+]1(C)[B-](F)(F)F` (stereo not given), which survivor count (dose: 50.0 mg/kg/injection, schedule: Q01DX005 (ip), vehicle: saline) is on record?
A: The survivor count was 3 of 6.

Q: And the survivor count (dose: 100.0 mg/kg/injection, schedule: Q01DX005 (ip), vehicle: saline)?
A: Its survivor count is 0 of 6.

Q: And the survivor count (dose: 200.0 mg/kg/injection, schedule: Q01DX005 (ip), vehicle: saline)?
A: Its survivor count is 0 of 6.

Q: Which results are given for `CCC1(CC)C(=O)NC(=O)[N]([Sn]([CH2]C)([CH2]C)[N]2C(=O)NC(=O)C(CC)(CC)C2=O)C1=O`?
A: T/C (dose: 6.25 mg/kg/injection, schedule: Q01DX005 (ip), vehicle: Klucel (hydroxypropylcellulose) (HPC)): 128 % of control; T/C (dose: 12.5 mg/kg/injection, schedule: Q01DX005 (ip), vehicle: Klucel (hydroxypropylcellulose) (HPC)): 138 % of control [5 of 6 alive]; survivor count [1]: 2 of 6; survivor count [2]: 0 of 6; survivor count [3]: 0 of 6

Q: What does the source list for `COc1cc(Br)c(/C=C/[N+](=O)[O-])cc1OC`?
A: survivor count [4]: 4 of 6; survivor count (dose: 400.0 mg/kg/injection, schedule: Q04DX003 (ip), vehicle: saline with Tween-80): 3 of 6

Q: What does the source list for `O=C(Cc1ccc(OCc2ccccc2)cc1)NCc1ccc2c(c1)OCO2`?
A: survivor count (dose: 60.0 mg/kg/injection, schedule: Q01DX005 (ip), vehicle: saline with Tween-80): 6 of 6; survivor count (dose: 120.0 mg/kg/injection, schedule: Q01DX005 (ip), vehicle: saline with Tween-80): 5 of 6; survivor count (dose: 240.0 mg/kg/injection, schedule: Q01DX005 (ip), vehicle: saline with Tween-80): 6 of 6

Q: Which survivor count (dose: 200.0 mg/kg/injection, schedule: Q01DX005 (ip), vehicle: saline with Tween-80) does the source give for `CC(C)(C)NC1=C([N+](=O)[O-])CCCC1` here?
A: The survivor count was 3 of 6.

Q: Which survivor count (dose: 12.5 mg/kg/injection, schedule: Q01DX009 (ip), vehicle: Klucel (hydroxypropylcellulose) (HPC)) does the source give for `N#CC(Br)(Br)C#N` here?
A: The survivor count was 3 of 6.

Q: And the survivor count (dose: 25.0 mg/kg/injection, schedule: Q01DX009 (ip), vehicle: Klucel (hydroxypropylcellulose) (HPC))?
A: Its survivor count is 0 of 6.

Q: And the survivor count (dose: 50.0 mg/kg/injection, schedule: Q01DX009 (ip), vehicle: Klucel (hydroxypropylcellulose) (HPC))?
A: The survivor count was 0 of 6.

Q: What about the survivor count (dose: 100.0 mg/kg/injection, schedule: Q01DX009 (ip), vehicle: Klucel (hydroxypropylcellulose) (HPC)) of the same molecule?
A: The survivor count was 0 of 6.

Q: What about the survivor count (dose: 200.0 mg/kg/injection, schedule: Q01DX009 (ip), vehicle: Klucel (hydroxypropylcellulose) (HPC)) of the same molecule?
A: Its survivor count is 0 of 6.

Q: What about the survivor count (dose: 400.0 mg/kg/injection, schedule: Q01DX009 (ip), vehicle: Klucel (hydroxypropylcellulose) (HPC)) of the same molecule?
A: The survivor count was 0 of 6.

Q: Which T/C (dose: 6.25 mg/kg/injection, schedule: Q04DX002 (ip), vehicle: saline with Tween-80) does the source give for `[Cl][Pt+2][Cl].[NH-]C(c1ccccc1)C([NH-])c1ccccc1` (stereo not given) here?
A: The T/C was 126 and 134 % of control.

Q: And the T/C (dose: 12.5 mg/kg/injection, schedule: Q01DX001 (ip), vehicle: Klucel (hydroxypropylcellulose) (HPC))?
A: The T/C was 125 % of control.

Q: And the T/C (dose: 12.5 mg/kg/injection, schedule: Q04DX002 (ip), vehicle: saline with Tween-80)?
A: The T/C was 128 and 139 % of control.

Q: And the T/C (dose: 25.0 mg/kg/injection, schedule: Q01DX001 (ip), vehicle: Klucel (hydroxypropylcellulose) (HPC))?
A: Its T/C is 131 % of control.

Q: And the T/C (dose: 25.0 mg/kg/injection, schedule: Q04DX002 (ip), vehicle: saline with Tween-80)?
A: Its T/C is 129 (2×), 142, 148 % of control.

Q: What about the T/C (dose: 50.0 mg/kg/injection, schedule: Q01DX001 (ip), vehicle: Klucel (hydroxypropylcellulose) (HPC)) of the same molecule?
A: Its T/C is 138 % of control.

Q: What about the T/C [5] of the same molecule?
A: Its T/C is 133 and 135 % of control.

Q: How did the T/C (dose: 6.25 mg/kg/injection, schedule: Q04DX003 (ip), vehicle: saline) turn out when `CCCCCCNP(=O)(N1CC1)N1CC1` was run?
A: Its T/C is 127 % of control.

Q: What about the T/C (dose: 12.5 mg/kg/injection, schedule: Q04DX003 (ip), vehicle: saline) of the same molecule?
A: The T/C was 136 % of control.

Q: What about the survivor count (dose: 16.5 mg/kg/injection, schedule: Q04DX003 (ip), vehicle: saline with Tween-80) of the same molecule?
A: The survivor count was 0 of 6.

Q: What about the survivor count (dose: 25.0 mg/kg/injection, schedule: Q04DX003 (ip), vehicle: saline with Tween-80) of the same molecule?
A: Its survivor count is 1 of 6.

Q: What about the survivor count (dose: 37.5 mg/kg/injection, schedule: Q04DX003 (ip), vehicle: saline with Tween-80) of the same molecule?
A: The survivor count was 0 of 6.

Q: And the survivor count (dose: 40.0 mg/kg/injection, schedule: Q01DX009 (ip), vehicle: saline)?
A: Its survivor count is 6 of 6.

Q: What about the survivor count [6] of the same molecule?
A: Its survivor count is 6 of 6.

Q: How did the survivor count (dose: 400.0 mg/kg/injection, schedule: Q01DX001 (ip), vehicle: saline) turn out when `CC1NCCCN(CCN(C)C)CCCNC(C)c2cccc1n2` (stereo not given) was run?
A: The survivor count was 0 of 6.

Q: Which survivor count (dose: 120.0 mg/kg/injection, schedule: Q01DX005 (ip), vehicle: acid diluted with saline) does the source give for `[Mn]=[Se]` here?
A: The survivor count was 4 of 6.

Q: And the survivor count (dose: 240.0 mg/kg/injection, schedule: Q01DX005 (ip), vehicle: acid diluted with saline)?
A: The survivor count was 0 of 6.

Q: How did the survivor count (dose: 200.0 mg/kg/injection, schedule: Q04DX003 (ip), vehicle: Klucel (hydroxypropylcellulose) (HPC)) turn out when `CNC1CCCc2c(O)cccc21` (stereo not given) was run?
A: Its survivor count is 2 of 6.

Q: Which results are given for `COC(=O)C12OCC34C(CC5C(C)C6=CC(=O)OC6=CC5(C)C3C(O)C1O)OC(=O)C(O)C24` (stereo not given)?
A: T/C [7]: 138 % of control [5 of 6 alive]; survivor count [7]: 0 of 6; survivor count (dose: 5.0 mg/kg/injection, schedule: Q01DX005 (ip), vehicle: Klucel (hydroxypropylcellulose) (HPC)): 0 of 6; survivor count (dose: 10.0 mg/kg/injection, schedule: Q01DX005 (ip), vehicle: Klucel (hydroxypropylcellulose) (HPC)): 0 of 6; survivor count (dose: 20.0 mg/kg/injection, schedule: Q01DX005 (ip), vehicle: Klucel (hydroxypropylcellulose) (HPC)): 0 of 6

Q: With `O=C(Nc1ccc(Cl)c(Cl)c1)Nc1ccc(Cl)c(Cl)c1` (tested in a mixture with another compound) as the molecule, how does the survivor count (dose: 25.0 mg/kg/injection, schedule: Q01DX009 (ip), vehicle: saline with Tween-80) read?
A: Its survivor count is 6 of 6.

Q: With `CC(C)(C)c1cc2c3c(c1)C(C)(C)OS3(C)OC2(C)C` as the molecule, how does the survivor count [6] read?
A: The survivor count was 1 of 6.

Q: And the survivor count (dose: 100.0 mg/kg/injection, schedule: Q04DX003 (ip), vehicle: saline with Tween-80)?
A: The survivor count was 0 of 6.

Q: What about the survivor count [4] of the same molecule?
A: The survivor count was 0 of 6.

Q: How did the survivor count [5] turn out when `CSC(=S)/C(=C(/[O-])c1ccccc1)[n+]1cccc(C)c1` was run?
A: Its survivor count is 0 of 6.

Q: What about the survivor count (dose: 100.0 mg/kg/injection, schedule: Q04DX002 (ip), vehicle: saline with Tween-80) of the same molecule?
A: The survivor count was 0 of 6.

Q: What about the survivor count (dose: 200.0 mg/kg/injection, schedule: Q04DX002 (ip), vehicle: saline with Tween-80) of the same molecule?
A: The survivor count was 0 of 6.

Q: How did the survivor count (dose: 25.0 mg/kg/injection, schedule: Q01DX009 (ip), vehicle: water) turn out when `COc1cccc2c1C(=O)c1c(O)c3c(c(O)c1C2=O)C[C@@](O)(C(=O)COc1ccccc1)C[C@@H]3OC1CC(N)C(O)C(C)O1` (stereo not given in full) was run?
A: Its survivor count is 2 of 3 and 6 of 6.
